Our source for the isolated yield and conjugation yield values is patent US20150306232A1 (BRANDEIS UNIVERSITY, priority 2012, published 2015).

Non-standard residues stand in square brackets, D forms with d. *: point of attachment. Paclitaxel(2'-O-succinyl) = CC(=O)O[C@H]1C(=O)[C@@]2(C)[C@H]([C@H](OC(=O)c3ccccc3)[C@]3(O)C[C@H](OC(=O)[C@H](OC(=O)CCC(=O)*)[C@@H](NC(=O)c4ccccc4)c4ccccc4)C(C)=C1C3(C)C)[C@]1(OC(C)=O)CO[C@@H]1C[C@@H]2O; d(pY) = N[C@H](Cc1ccc(OP(=O)(O)O)cc1)C(=O)O; Acetyl(2-naphthyl) = O=C(Cc1ccc2ccccc2c1)*

A short description of this data set: general procedure: Fmoc solid-phase peptide synthesis; 2-chlorotrityl chloride resin (100~200 mesh and 0.3~0.8 mmol/g); DIPEA/HBTU. The settings on record: for isolated yield: whole synthesis; for conjugation yield: conjugation step.

In the case of “2-(Naphthalen-2-yl)acetyl-(D)-Phe-(D)-Phe-(D)-Lys-(D)-Tyr phosphate”, the isolated yield worked out at 57%.

“{Acetyl(2-naphthyl)}-[dF][dF][dK](Paclitaxel(2'-O-succinyl))[d(pY)]-OH (SMILES CC(=O)O[C@H]1C(=O)[C@@]2(C)[C@H]([C@H](OC(=O)c3ccccc3)[C@]3(O)C[C@H](OC(=O)[C@H](OC(=O)CCC(=O)NCCCC[C@@H](NC(=O)[C@@H](Cc4ccccc4)NC(=O)[C@@H](Cc4ccccc4)NC(=O)Cc4ccc5ccccc5c4)C(=O)N[C@H](Cc4ccc(OP(=O)(O)O)cc4)C(=O)O)[C@@H](NC(=O)c4ccccc4)c4ccccc4)C(C)=C1C3(C)C)[C@]1(OC(C)=O)CO[C@@H]1C[C@@H]2O)”: the conjugation yield worked out at 37%.

The substance “2-(Naphthalen-2-yl)acetyl-(L)-Phe-(L)-Phe-(L)-Lys-(L)-Tyr phosphate” showed an isolated yield (total yield) of 64%.

In the case of “2-(Naphthalen-2-yl)acetyl-(D)-Phe-(D)-Phe-(D)-Lys(NBD)-(D)-Tyr phosphate”, the conjugation yield was 48%.
